Laboratory results reported in the supplement of paper PMC5393889.
Some of the results follow.

tested on: Caenorhabditis elegans N2; assay: aldicarb interaction hit call (worm growth perturbed in combination with 10 uM aldicarb in both replicates, no effect as single agent) (binary (1 = interacts)); higher = interacts with aldicarb (growth perturbed); conditions: first compound 1.5 µM; aldicarb concentration 10 µM; 6 days; 20 °C

| Structure (SMILES) | aldicarb interaction hit call |
| --- | --- |
| Cc1ccc(-c2nnc3n2C(C)(C)Cc2ccccc2-3)cc1 [wact-431] + CNC(=O)O/N=C/C(C)(C)SC [aldicarb] | inactive: 0 |
| C=CCNCCOc1ccc(-c2ccccc2)cc1.Cl [wact-147] + CNC(=O)O/N=C/C(C)(C)SC [aldicarb] | inactive: 0 |
| COC(=O)c1cc(-c2ccc(C)cc2)on1 [wact-578] + CNC(=O)O/N=C/C(C)(C)SC [aldicarb] | inactive: 0 |
| Fc1ccc(N2CCN(Cc3cccc(Br)c3)CC2)cc1 [wact-30] + CNC(=O)O/N=C/C(C)(C)SC [aldicarb] | inactive: 0 |
| CC(C)c1cc(Br)ccc1OCCCN1CCN(C)CC1.Cl [wact-149] + CNC(=O)O/N=C/C(C)(C)SC [aldicarb] | inactive: 0 |
| Clc1ccc(-c2noc(CN3CCC(Oc4cccnc4)CC3)n2)cc1 [wact-258] + CNC(=O)O/N=C/C(C)(C)SC [aldicarb] | inactive: 0 |
| CN(Cc1nc(-c2ccc(C(F)(F)F)cc2)no1)CC1CCCN1C (stereo unspecified) [wact-271] + CNC(=O)O/N=C/C(C)(C)SC [aldicarb] | inactive: 0 |
| O=C(CNc1ccc(C(F)(F)F)cc1[N+](=O)[O-])Nc1cccc(SC(F)(F)F)c1 [wact-489] + CNC(=O)O/N=C/C(C)(C)SC [aldicarb] | inactive: 0 |
| Clc1ccc(OCCN2CCNCC2)c(Cl)c1.O=C(O)C(=O)O [wact-75] + CNC(=O)O/N=C/C(C)(C)SC [aldicarb] | inactive: 0 |
| S=C(NCc1ccc(Cl)cc1)NC1CCN(Cc2ccccc2)CC1 [wact-108] + CNC(=O)O/N=C/C(C)(C)SC [aldicarb] | inactive: 0 |
| Clc1ccc(-c2nc(-c3cccs3)no2)c(Cl)c1 [wact-169] + CNC(=O)O/N=C/C(C)(C)SC [aldicarb] | inactive: 0 |
| CN(C)c1cccc(-c2nc(-c3ccccc3)no2)c1 [wact-567] + CNC(=O)O/N=C/C(C)(C)SC [aldicarb] | inactive: 0 |
| CCn1ncc(Cl)c1C(=O)Nc1cccc(Cl)c1Cl [wact-71] + CNC(=O)O/N=C/C(C)(C)SC [aldicarb] | inactive: 0 |
| O=C(Nc1nc2ccccc2[nH]1)c1ccco1 [wact-626] + CNC(=O)O/N=C/C(C)(C)SC [aldicarb] | inactive: 0 |
| Cc1csc2nc3ccccc3c(=O)n12 [wact-618] + CNC(=O)O/N=C/C(C)(C)SC [aldicarb] | inactive: 0 |
| CC(Oc1ccccc1)c1nc(-c2ccc(Cl)cc2)no1 (stereo unspecified) [wact-185] + CNC(=O)O/N=C/C(C)(C)SC [aldicarb] | inactive: 0 |
| COC1CCN(Cc2nc(-c3ccc(-c4ccccc4)cc3)oc2C)CC1 [wact-281] + CNC(=O)O/N=C/C(C)(C)SC [aldicarb] | inactive: 0 |
| c1ccc(-c2noc(-c3cccs3)n2)cc1 [wact-7] + CNC(=O)O/N=C/C(C)(C)SC [aldicarb] | inactive: 0 |
| CC(Cc1cnccn1)NC(=O)c1csc2nc(-c3cccc(C(F)(F)F)c3)cn12 (stereo unspecified) [wact-294] + CNC(=O)O/N=C/C(C)(C)SC [aldicarb] | inactive: 0 |
| Oc1c(Cl)cc(Cl)cc1/C=N/Nc1ccccc1 [wact-420] + CNC(=O)O/N=C/C(C)(C)SC [aldicarb] | inactive: 0 |
| CSc1ccccc1C(=O)NCCSC(C)(C)C [wact-610] + CNC(=O)O/N=C/C(C)(C)SC [aldicarb] | inactive: 0 |
| Cc1cc(OC(F)F)ccc1NC(=S)NCCc1ccccc1 [wact-543] + CNC(=O)O/N=C/C(C)(C)SC [aldicarb] | inactive: 0 |
| Clc1ccc(Cn2cc(I)cn2)cc1 [wact-554] + CNC(=O)O/N=C/C(C)(C)SC [aldicarb] | inactive: 0 |
| O=C(Nc1ccc(CN2CCOCC2)cc1)c1ccc(Cl)c(Cl)c1 [wact-499] + CNC(=O)O/N=C/C(C)(C)SC [aldicarb] | inactive: 0 |
| N/C(=N\OC(=O)c1cc(Br)ccc1Cl)c1ccncc1 [wact-105] + CNC(=O)O/N=C/C(C)(C)SC [aldicarb] | inactive: 0 |
| COc1ccc(CNc2ccc(Br)cc2)cc1 [wact-423] + CNC(=O)O/N=C/C(C)(C)SC [aldicarb] | inactive: 0 |

An excerpt of these results, bar-delimited:
Structure (SMILES) | aldicarb interaction hit call
Clc1ccc(OCCN2CCNCC2)c(Cl)c1.O=C(O)C(=O)O [wact-75] + CNC(=O)O/N=C/C(C)(C)SC [aldicarb] | inactive: 0
S=C(NCc1ccc(Cl)cc1)NC1CCN(Cc2ccccc2)CC1 [wact-108] + CNC(=O)O/N=C/C(C)(C)SC [aldicarb] | inactive: 0
